According to the supplement of paper PMC12889115:
Some of the results follow. These are raw signals, not scaled to a control.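 Primary screen: polymyxin B was added at a level permeabilizing Salmonella outer membranes while sparing inner membranes. DMSO wells, both with and without polymyxin B, established maximum growth. Plate-to-plate variation meant each plate was ranked on its own, and the lowest-OD600 compounds were selected as hits.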

Tested on: Salmonella enterica serovar Typhimurium SL1344
Assay: bacterial growth OD600 after 18 h with compound and polymyxin B; higher = more bacterial growth (less inhibition)
Settings: 50 µM, Mueller-Hinton broth

Row | Structure (SMILES) | bacterial growth OD600 (polymyxin B 0.75 µg/mL) | bacterial growth OD600 (polymyxin B 1 µg/mL)
1 | Cc1cnc(SCCN2CCOCC2)nc1C1CCCN(C(=O)COc2ccccc2)C1 (stereo unspecified) | 0.95 | –
2 | CC(=O)NCC1CCCN(C(=O)c2cc(COc3c(C)cccc3C)on2)C1 (stereo unspecified) | – | 1.01
3 | COc1ccc(CCCN2C(=O)O[C@@H]3CN(Cc4[nH]cnc4C)C[C@@H]32)cc1 | – | 1
4 | Cc1ccc(Cl)cc1N1CCN(C(=O)c2cn(CC3CCCO3)nn2)CC1 (stereo unspecified) | – | 0.017
5 | O=C(c1cn(CCc2ccccc2)nn1)N1CCC(c2ccccc2Cl)C1 (stereo unspecified) | – | 0.134
6 | CN(CC1CCOCC1)c1ccc(-c2nc(COc3ccccc3)no2)cn1 | – | 0.854
7 | CCOC(=O)C1(CCOc2ccccc2)CCN(Cc2cccc(OC)c2OC)CC1 | – | 0.908
8 | Fc1cccc(C2CCN(CC3CC3)c3ccccc3S2)c1 (stereo unspecified) | 0.003 | –
9 | CCC(=O)N[C@@H]1c2ccccc2C2(CCN(C(=O)c3cnn(CC)c3)CC2)[C@H]1OCc1cccnc1 | 0.856 | –
10 | CCCc1cc(CNC(=O)c2ccc(NC3CCCC3)nc2)on1 | – | 0.815
11 | COCCCN1C(=O)CC(CC(=O)N2CCC(c3ccc(F)cc3)C2)(c2ccccc2Cl)C1=O (stereo unspecified) | 0.017 | –
12 | c1ccc(NC2CCCN(Cc3ccc4c(c3)CCO4)C2)cc1 (stereo unspecified) | – | 0.788
13 | COc1ccc2c(C)nc(N3CCCC(C(=O)NC4CC4)C3)nc2c1 (stereo unspecified) | 0.78 | –
14 | O=C(CCC1CCN(C(=O)c2ccc(Cn3cnnn3)cc2)CC1)NC1CC1 | – | 1.01
15 | COC(=O)[C@H](Cc1ccccc1)NC(=O)CCC1(Cc2ccc(SC)cc2)CCC(=O)N1 (stereo partly specified) | 0.822 | –
16 | CCC(=O)N1CCC(C(=O)Nc2ccc(Oc3ccccc3F)cc2)CC1 | – | 0.909

Row | Structure (SMILES) | bacterial growth OD600 (polymyxin B 0.75 µg/mL) | bacterial growth OD600 (polymyxin B 1 µg/mL)
17 | COc1cccc(-c2n[nH]c3c2CN(C(=O)c2ccccc2N(C)C)CC3)c1 | 0.164 | –
18 | O=C1O[C@@H]2CN(Cc3cnc(N4CCCC4)s3)C[C@@H]2N1C1CCCC1 | 0.837 | –
19 | COc1ccc(F)c(CN2CCC(CCC(=O)N3CCN(c4ccccc4)CC3)CC2)c1 | – | 0.906
20 | CCCCC1CN(CCNC(=O)c2ccc(OC)c(OC)c2OC)Cc2ccccc2O1 (stereo unspecified) | 0.64 | –
21 | CCOc1ccc(CN2CCN(Cc3ccc(OC)c(O)c3)CC2CCO)cc1 (stereo unspecified) | – | 0.832
22 | O=C(CCC1CCN(CC2CC=CCC2)CC1)Nc1ccc2c(c1)OCCO2 (stereo unspecified) | – | 1.06
23 | OC1CCN([C@@H]2CCN(Cc3cccc4c3oc3ccccc34)C[C@H]2O)CC1 | 0.778 | –
24 | COCCn1c(CN(C)C(C)C)cnc1S(=O)(=O)CC1CCCCC1 | 0.82 | –
25 | Cc1c(CC(=O)NCC2CC2)c2c(n1Cc1ccccc1F)CCCC2=O | – | 0.424
26 | CC(=O)Nc1cc(C(=O)N(C)Cc2nc3c(s2)CCCC3)c2c(c1)nc(C)n2Cc1ccccc1 | 0.781 | –
27 | CN(CC1CCCN(CCc2ccc(F)cc2)C1)C(=O)C1(c2ccccc2)CC1 (stereo unspecified) | – | 0.021
28 | O=C1OCCN1CCNc1ccc(-c2nc(-c3cccc(Cl)c3)no2)cn1 | 0.002 | –
29 | CCC(CC)NC1CCCc2nc(N3CCC(CO)CC3)ncc21 (stereo unspecified) | – | 1.35
30 | CCN1CCC(CN(C)C(=O)c2cc(Cn3c(C)nc4ccccc43)[nH]n2)C1 (stereo unspecified) | – | 0.871
31 | O=C(NCc1cccs1)c1ccc(OC2CCN(Cc3ccccn3)CC2)cc1 | – | 0.836

Reprinted at random: 2 compounds from above
Row | Structure (SMILES) | bacterial growth OD600 (polymyxin B 0.75 µg/mL) | bacterial growth OD600 (polymyxin B 1 µg/mL)
30 | CCN1CCC(CN(C)C(=O)c2cc(Cn3c(C)nc4ccccc43)[nH]n2)C1 (stereo unspecified) | – | 0.871
29 | CCC(CC)NC1CCCc2nc(N3CCC(CO)CC3)ncc21 (stereo unspecified) | – | 1.35
